The record followed here is article PMC4139341 (PLoS ONE, 2014).

By UniProt entry, the sequences of proteins in these tests, tags left out. Residues count along the entry.
UniProt O42275, 24-633: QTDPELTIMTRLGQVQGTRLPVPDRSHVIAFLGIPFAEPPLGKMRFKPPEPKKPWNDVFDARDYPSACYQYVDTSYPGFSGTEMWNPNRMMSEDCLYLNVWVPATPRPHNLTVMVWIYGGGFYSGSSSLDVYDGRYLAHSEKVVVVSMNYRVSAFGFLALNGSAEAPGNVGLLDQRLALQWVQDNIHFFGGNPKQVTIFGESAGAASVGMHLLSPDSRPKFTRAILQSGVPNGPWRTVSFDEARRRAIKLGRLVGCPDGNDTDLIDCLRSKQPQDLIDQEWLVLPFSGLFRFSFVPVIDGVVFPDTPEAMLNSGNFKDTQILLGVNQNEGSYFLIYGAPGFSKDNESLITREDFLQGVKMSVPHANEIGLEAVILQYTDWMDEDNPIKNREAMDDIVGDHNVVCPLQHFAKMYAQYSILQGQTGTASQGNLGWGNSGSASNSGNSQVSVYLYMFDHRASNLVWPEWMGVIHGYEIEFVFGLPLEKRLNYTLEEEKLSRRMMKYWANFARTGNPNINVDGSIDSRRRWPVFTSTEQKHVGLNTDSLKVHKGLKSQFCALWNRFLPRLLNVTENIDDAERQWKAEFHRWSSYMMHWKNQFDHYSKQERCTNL

The test concerns the target AChE (Electrophorus electricus, UniProt O42275). In words: biochemical. On the procedure:
The modified method of Ellman et al. was adopted to measure AChE activity. Briefly, 25 µl (0.3 U/ml) AChE from Electric eel fish (Electrophorus electricus) was incubated with and without different concentrations of drugs selected from Molecular Docking studies. The reaction was carried out for 15 min at 25°C. […] Total volume of the reaction was made up to 1 ml by Tris buffer, pH 8.0. ATCI hydrolysis was measured by colored product formation, 5-thio-2-nitrobenzoate anion by reaction between DTNB and thiocholine, a hydrolysis product of ATCI. The formation of the colored product was measured at 405 nm wavelength after 30 min. The background was determined from negative controls (omission of AChE enzyme).
Lineweaver-Burk double reciprocal plot was plotted in order to determine the Km. […] The Ki was calculated directly from IC50 value using Cheng-Prussoffs classical equation [45]. [drawing 1]
The reciprocals of reaction rate (1/v) for each inhibitor concentration were plotted against the reciprocals of the substrate concentrations (1/S).

Structures are written as SMILES.

With `CNCCCC12CCC(c3ccccc31)c1ccccc12` [maprotiline], the midpoint of inhibition, the IC50, lay at 100 µM.

The compound `CN(C)CCC=C1c2ccccc2COc2ccccc21` [doxepin] showed an IC50 of 480 µM.
